Laboratory results reported in PMC4605776.
These are yes or no findings as the source states them, for the method shown. In cells and extracts the contact can be indirect. Some binding calls cover weakened binding; strength is not graded here.

By UniProt entry, the sequences of proteins in these tests, tags left out. Where a name states a change or a piece, a line headed by the entry shows the natural chain unless it says otherwise.
UniProt P70340: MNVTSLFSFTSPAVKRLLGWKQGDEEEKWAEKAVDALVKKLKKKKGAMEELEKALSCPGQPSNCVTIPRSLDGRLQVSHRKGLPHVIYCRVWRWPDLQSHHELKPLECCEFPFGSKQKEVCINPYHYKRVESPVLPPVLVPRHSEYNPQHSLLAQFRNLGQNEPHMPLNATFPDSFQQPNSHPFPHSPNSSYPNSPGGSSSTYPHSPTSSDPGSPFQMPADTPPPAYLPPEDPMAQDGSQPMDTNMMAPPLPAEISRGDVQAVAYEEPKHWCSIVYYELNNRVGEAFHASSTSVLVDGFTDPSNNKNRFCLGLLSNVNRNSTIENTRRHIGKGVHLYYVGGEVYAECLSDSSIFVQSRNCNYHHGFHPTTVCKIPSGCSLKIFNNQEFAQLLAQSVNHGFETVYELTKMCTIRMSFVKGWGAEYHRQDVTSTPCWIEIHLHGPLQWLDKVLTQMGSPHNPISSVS
UniProt E9Q616: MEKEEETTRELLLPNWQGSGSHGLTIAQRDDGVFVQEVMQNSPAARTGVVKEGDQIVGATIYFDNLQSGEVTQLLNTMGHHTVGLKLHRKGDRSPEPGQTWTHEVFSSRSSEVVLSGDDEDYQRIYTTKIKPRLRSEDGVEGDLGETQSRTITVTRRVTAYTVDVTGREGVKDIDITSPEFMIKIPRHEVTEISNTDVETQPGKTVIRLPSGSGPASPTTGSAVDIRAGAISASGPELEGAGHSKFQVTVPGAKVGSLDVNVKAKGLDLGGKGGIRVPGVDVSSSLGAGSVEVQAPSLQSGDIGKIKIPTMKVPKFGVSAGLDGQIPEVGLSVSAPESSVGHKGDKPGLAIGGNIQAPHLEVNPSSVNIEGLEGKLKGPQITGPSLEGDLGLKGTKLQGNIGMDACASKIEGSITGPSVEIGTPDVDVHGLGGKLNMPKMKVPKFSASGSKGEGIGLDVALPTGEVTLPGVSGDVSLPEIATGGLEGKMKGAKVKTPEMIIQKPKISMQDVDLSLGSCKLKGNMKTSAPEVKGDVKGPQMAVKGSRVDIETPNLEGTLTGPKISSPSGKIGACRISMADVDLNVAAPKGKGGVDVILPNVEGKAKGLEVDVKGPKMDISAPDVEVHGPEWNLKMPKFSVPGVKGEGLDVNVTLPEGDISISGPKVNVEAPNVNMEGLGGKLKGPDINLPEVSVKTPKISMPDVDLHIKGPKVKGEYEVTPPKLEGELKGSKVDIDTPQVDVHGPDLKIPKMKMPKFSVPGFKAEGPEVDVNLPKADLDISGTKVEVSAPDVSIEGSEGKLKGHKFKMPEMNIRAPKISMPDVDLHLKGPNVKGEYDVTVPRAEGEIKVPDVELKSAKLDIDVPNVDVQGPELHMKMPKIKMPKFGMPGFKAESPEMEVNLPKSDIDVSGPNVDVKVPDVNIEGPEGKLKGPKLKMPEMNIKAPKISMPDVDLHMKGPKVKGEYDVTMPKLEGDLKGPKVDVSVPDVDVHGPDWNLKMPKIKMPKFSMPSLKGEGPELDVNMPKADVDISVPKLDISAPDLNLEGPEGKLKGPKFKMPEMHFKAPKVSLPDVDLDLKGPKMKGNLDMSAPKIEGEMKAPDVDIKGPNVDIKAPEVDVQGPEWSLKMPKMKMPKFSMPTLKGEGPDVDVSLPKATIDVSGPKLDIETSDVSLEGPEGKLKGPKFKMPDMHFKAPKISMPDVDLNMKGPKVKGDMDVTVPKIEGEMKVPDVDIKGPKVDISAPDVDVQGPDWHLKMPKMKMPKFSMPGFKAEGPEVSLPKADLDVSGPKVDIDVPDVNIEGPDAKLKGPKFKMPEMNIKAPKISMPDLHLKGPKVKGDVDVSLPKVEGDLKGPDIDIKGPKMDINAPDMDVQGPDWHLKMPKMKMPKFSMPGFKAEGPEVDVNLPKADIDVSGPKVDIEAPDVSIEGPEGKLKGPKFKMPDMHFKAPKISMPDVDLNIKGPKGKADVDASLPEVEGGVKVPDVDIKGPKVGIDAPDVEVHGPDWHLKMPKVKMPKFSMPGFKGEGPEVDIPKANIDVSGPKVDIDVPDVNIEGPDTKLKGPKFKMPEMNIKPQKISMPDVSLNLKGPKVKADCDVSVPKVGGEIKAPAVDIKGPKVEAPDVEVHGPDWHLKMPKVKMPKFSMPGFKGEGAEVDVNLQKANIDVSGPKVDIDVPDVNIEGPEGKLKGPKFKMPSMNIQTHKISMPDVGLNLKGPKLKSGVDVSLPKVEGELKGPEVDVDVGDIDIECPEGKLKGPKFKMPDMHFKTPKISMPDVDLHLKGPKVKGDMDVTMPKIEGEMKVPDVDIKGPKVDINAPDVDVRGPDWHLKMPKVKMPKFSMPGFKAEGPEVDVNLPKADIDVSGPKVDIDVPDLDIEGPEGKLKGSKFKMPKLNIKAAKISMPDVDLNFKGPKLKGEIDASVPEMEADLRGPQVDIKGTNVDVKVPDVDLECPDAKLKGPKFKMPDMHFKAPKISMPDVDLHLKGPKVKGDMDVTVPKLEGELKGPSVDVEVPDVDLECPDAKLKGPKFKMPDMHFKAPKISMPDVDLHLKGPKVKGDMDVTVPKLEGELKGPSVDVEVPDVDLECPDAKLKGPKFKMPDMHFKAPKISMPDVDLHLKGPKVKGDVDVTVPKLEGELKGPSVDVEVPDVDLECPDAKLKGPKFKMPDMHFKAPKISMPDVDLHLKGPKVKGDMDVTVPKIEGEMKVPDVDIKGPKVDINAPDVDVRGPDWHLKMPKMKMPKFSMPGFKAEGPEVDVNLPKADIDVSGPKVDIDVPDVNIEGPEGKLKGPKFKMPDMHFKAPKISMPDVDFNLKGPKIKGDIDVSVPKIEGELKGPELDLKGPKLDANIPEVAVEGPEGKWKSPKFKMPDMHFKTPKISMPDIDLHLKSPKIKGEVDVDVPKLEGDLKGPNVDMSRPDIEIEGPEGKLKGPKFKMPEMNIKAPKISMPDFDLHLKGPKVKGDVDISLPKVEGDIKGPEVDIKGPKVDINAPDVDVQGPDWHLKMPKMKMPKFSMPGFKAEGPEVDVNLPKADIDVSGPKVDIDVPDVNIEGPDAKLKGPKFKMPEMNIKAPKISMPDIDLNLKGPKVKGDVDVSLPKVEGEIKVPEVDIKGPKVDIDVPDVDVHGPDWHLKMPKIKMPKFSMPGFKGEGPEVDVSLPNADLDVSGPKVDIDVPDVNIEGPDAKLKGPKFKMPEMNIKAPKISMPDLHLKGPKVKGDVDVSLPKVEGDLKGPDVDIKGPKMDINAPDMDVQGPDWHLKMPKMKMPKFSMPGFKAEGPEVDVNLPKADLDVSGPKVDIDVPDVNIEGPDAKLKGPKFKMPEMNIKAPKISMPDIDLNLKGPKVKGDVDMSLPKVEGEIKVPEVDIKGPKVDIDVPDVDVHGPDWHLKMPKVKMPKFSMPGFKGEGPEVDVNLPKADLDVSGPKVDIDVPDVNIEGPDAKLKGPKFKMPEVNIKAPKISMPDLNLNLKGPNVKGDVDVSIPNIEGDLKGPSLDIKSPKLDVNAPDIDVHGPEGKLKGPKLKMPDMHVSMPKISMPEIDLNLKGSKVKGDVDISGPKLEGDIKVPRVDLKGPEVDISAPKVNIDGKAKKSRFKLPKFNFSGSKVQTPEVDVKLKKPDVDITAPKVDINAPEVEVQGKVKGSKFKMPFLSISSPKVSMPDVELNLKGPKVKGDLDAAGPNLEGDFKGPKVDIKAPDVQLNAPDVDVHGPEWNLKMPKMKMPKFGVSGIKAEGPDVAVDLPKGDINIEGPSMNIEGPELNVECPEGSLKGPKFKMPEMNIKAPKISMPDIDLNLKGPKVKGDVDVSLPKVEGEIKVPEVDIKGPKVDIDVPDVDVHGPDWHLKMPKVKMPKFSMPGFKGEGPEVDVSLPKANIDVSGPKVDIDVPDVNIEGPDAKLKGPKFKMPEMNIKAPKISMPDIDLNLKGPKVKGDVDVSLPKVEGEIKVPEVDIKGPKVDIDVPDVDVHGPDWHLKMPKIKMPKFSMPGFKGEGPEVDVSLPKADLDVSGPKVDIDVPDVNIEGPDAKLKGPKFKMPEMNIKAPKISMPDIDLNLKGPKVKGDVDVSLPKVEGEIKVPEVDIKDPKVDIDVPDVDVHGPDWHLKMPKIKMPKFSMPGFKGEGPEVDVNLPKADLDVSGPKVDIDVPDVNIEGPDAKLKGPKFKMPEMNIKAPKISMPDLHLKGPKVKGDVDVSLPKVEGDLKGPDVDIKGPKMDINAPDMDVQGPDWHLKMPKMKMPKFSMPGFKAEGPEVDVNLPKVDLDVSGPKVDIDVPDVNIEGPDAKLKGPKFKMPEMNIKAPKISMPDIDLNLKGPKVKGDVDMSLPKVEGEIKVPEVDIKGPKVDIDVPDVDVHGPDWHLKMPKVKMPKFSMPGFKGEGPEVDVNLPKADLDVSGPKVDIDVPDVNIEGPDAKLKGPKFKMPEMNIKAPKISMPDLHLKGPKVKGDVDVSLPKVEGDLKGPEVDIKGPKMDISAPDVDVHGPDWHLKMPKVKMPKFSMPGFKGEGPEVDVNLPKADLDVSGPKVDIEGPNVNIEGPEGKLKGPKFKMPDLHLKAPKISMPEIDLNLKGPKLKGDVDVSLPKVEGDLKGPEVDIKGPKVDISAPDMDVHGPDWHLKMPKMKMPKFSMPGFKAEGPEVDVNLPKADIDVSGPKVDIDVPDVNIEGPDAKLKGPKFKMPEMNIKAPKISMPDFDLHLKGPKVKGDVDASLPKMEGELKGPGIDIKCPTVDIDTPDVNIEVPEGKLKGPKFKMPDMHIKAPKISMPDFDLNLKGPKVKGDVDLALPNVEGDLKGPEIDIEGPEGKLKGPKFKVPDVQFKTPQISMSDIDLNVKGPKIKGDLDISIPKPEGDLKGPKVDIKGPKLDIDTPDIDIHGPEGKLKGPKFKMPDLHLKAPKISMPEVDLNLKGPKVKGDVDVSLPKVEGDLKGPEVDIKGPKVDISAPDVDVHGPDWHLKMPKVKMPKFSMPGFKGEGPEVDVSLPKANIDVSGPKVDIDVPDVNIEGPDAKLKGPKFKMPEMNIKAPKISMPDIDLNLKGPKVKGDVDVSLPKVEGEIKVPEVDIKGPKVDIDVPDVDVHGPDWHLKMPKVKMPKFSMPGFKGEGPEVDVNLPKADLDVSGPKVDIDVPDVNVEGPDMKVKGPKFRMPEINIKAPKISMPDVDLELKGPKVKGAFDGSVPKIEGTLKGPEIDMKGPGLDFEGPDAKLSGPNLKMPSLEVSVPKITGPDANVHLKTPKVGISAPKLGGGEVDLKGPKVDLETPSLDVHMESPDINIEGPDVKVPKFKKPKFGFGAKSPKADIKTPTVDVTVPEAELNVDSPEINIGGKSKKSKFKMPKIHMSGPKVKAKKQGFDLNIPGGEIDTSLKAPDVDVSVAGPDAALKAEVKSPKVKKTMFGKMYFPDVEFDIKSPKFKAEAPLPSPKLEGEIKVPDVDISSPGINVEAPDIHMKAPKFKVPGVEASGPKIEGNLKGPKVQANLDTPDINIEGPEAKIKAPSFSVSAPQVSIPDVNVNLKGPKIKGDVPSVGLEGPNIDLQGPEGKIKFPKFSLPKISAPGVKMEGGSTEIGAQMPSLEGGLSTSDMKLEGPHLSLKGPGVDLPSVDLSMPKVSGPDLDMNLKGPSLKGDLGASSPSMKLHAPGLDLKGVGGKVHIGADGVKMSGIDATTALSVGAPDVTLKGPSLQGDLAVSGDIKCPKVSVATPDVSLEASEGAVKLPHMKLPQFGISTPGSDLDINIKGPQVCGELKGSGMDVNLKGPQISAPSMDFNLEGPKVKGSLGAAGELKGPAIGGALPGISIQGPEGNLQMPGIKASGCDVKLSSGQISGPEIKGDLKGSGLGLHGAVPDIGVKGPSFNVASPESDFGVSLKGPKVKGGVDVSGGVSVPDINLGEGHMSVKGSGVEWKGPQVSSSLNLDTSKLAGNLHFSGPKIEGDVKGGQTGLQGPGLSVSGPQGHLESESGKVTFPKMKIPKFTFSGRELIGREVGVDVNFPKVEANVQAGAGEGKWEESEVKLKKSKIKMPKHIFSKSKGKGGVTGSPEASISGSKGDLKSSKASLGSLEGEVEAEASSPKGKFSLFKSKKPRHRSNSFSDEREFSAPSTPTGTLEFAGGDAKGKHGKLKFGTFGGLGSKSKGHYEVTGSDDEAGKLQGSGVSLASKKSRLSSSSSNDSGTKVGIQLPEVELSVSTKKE

Legend:
[1] = target: SMAD1 (UniProt P70340); assay: proximity ligation; in situ Duolink PLA with AHNAK and SMAD1 probes; BMP4-treated and vehicle-control cells; nuclei stained with DAPI
[2] = target: HA-Smad1 (UniProt P70340); assay: co-IP; Flag-Ahnak and HA-Smad1 co-transfected into C3H10T1/2 cells, incubated without or with BMP4 for 60 min; lysates immunoprecipitated with anti-HA antibody at 4°C overnight, protein A/G agarose beads, washed three times with lysis buffer (1% Triton X-100, 20 mM HEPES pH 7.5, 150 mM NaCl, 10% glycerol, 5 mM EDTA); immunoblot

With AHNAK (from UniProt E9Q616 1-5656) the binding [1] was “binds”.

For “Flag-Ahnak (N-terminal, amino-acid residues 1–150) (from UniProt E9Q616 1-150) (domain or fragment)”, the binding [2] was “binds”.
